Results taken from PubChem BioAssay AID1487 (National Center for Advancing Translational Sciences (NCATS), 2009).
The other results are listed elsewhere or left out. Further columns of the screen follow, without active or inactive calls. Most of these compounds were active or inconclusive in the main read-out, so they are no random draw. Potencies come from curve fits of mixed quality, noted in brackets.

Experiment: qHTS Assay for Modulators of Lamin A Splicing
Conditions: HeLa LMNA splicing GFP/RFP minigene ratio, 48 h
In short: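 Read-out is the ratio of GFP to DsRed2 object intensity, acquired by 488 nm laser-scanning cytometry on HeLa lamin A-EGFP minigene reporter cells. Compound incubation 48 hrs at 37 °C in Opti-MEM with 2% FBS; DMSO 0.5% final.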

[1] = measured here: GFP splicing reporter channel
[2] = measured here: RFP viability control channel

Structure (SMILES) | AC50 [1] | AC50 [2]
COC(=O)c1cc(C)nc2c1c(=O)nc(SCc1cccc(C)c1)n2C1CC1 | 0.0251 µM [rising, full curve, poor fit] | 
COc1cccc(OCC(=O)Nc2cc(Cl)ccc2Oc2ccccc2)c1 | 12.6 µM [rising, single point] | 22.4 µM [rising, single point]
CC1=CC2(O)OCCN(CCO)C2=CC1=O (stereo not drawn) | 35.5 µM [falling, single point] | 35.5 µM [falling, single point]
CC(C)Cn1c(-c2csc3ccccc23)n[nH]c1=S | 31.6 µM [rising, single point] | 
O=C(Nc1ccc(N2CCC(c3ccccc3)C2)c(C(=O)O)c1)c1ccc(Cl)cc1 (stereo not drawn) |  | 0.178 µM [falling, full curve, poor fit]
O=C(CN1CCCC1)Nc1ccc([N+](=O)[O-])cc1 |  | 0.0355 µM [falling, full curve, poor fit]
NC(N)=NC(N)=Nc1ccccc1 |  | 5.62 µM [falling, single point]
Cc1nc(Nc2nc(CSc3nc4ccccc4[nH]3)cc(=O)[nH]2)nc2ccccc12 | 35.5 µM [falling, single point] | 35.5 µM [falling, single point]
O=C(O)CCn1cc(/C=C/C(=O)c2ccc(Cl)cc2)c(-c2ccc(Br)cc2)n1 | 35.5 µM [falling, single point] | 3.98 µM [rising, partial curve]
CC(C)c1cnc2c(c1SCC(=O)NCc1ccccc1)c(=O)n(C)c(=O)n2C | 8.91 µM [rising, partial curve, poor fit] | 28.2 µM [rising, partial curve]
COc1ccccc1Cc1nc2ccccc2nc1SCC(=O)Nc1cccc(Cl)c1C | 0.126 µM [rising, full curve] | 
COc1cc(CNn2cn[nH]c2=S)cc(Cl)c1OCc1ccc(F)cc1 |  | 1.26 µM [rising, partial curve, poor fit]
COc1cccc(/C=N/N2CCN(c3ccncc3S(=O)(=O)N3CCCCC3)CC2)c1 | 0.447 µM [rising, partial curve, poor fit] | 12.6 µM [rising, partial curve, poor fit]
CCc1c(C#N)c(SCc2c(C)noc2C)nc2c1C(=O)CC(C)(C)C2 | 12.6 µM [rising, partial curve] | 15.8 µM [rising, single point]
N#Cc1c(N)nc2c(c1-c1ccc3c(c1)OCO3)CCc1ccccc1-2 | 3.16 µM [falling, partial curve] | 2.82 µM [falling, partial curve]
O=C(NCCN1CCN(S(=O)(=O)c2ccc([N+](=O)[O-])cc2)CC1)C(=O)Nc1ccccc1 |  | 0.0562 µM [rising, full curve, poor fit]
O=C(Nc1nnc(CC2=CCCCC2)s1)c1cccs1 |  | 22.4 µM [rising, single point]
CN(C)S(=O)(=O)c1cccc(NC(=O)CSc2nc3ccccc3n2-c2ccccc2)c1 |  | 25.1 µM [rising, single point]

Structure (SMILES) | AC50 [1] | AC50 [2]
Cc1ccc(CNC(=O)Cn2cc(S(=O)(=O)Cc3ccccc3F)c3ccccc32)cc1 | 12.6 µM [falling, single point] | 0.0398 µM [falling, full curve, poor fit]
Cc1ccc(/C=N/N2CCN(c3ccccn3)CC2)cc1 | 11.2 µM [rising, partial curve] | 
O=S(=O)(CCOc1ccccc1)c1nc2ccccc2[nH]1 | 28.2 µM [falling, single point] | 
CCn1c(=O)n(CC)c2cc(N3CCCCC3)c(NC(=O)Nc3ccccc3C(F)(F)F)cc21 |  | 0.112 µM [falling, full curve]
O=C(OCC(=O)N1CCN(C(=O)c2ccco2)CC1)c1cc(-c2cccc(Br)c2)nc2ccccc12 |  | 22.4 µM [rising, single point]
Cc1[nH]c2ccccc2c1SCc1nnc(SCc2ccc(Cl)cc2)n1C | 35.5 µM [rising, single point] | 20 µM [rising, single point]
Cc1nnn(C23CC4CC(CC(CC(=O)Nc5ccc(C)c(Cl)c5)(C4)C2)C3)n1 | 8.91 µM [rising, partial curve] | 12.6 µM [rising, partial curve]
COc1ccc2cc(/C=C3\SC(=S)NC3=O)c(N3CCOCC3)nc2c1 |  | 2.82 µM [rising, full curve]
CCOC(=O)c1c(-c2ccc(OC)cc2)csc1NC(=O)CSc1ncnc2sccc12 |  | 25.1 µM [rising, partial curve]
COCCCNC(=O)c1cc(-c2cccnc2)nc2ccc(S(=O)(=O)N3CCC(C)CC3)cc12 |  | 0.447 µM [falling, full curve]
O=C(CN1CCN(c2ccc([N+](=O)[O-])cc2)CC1)Nc1nccs1 |  | 12.6 µM [rising, single point]
CN(Cc1ccccc1)Cc1nc2scc(-c3ccccc3)c2c(=O)[nH]1 |  | 35.5 µM [rising, single point]
COc1ccccc1NC(=O)N1CCN(c2cc(-c3ccccc3)nc3ncnn23)CC1 | 15.8 µM [rising, partial curve] | 
COc1ccc(/C=C/C(=O)c2ccc3c(c2)OCO3)c(OC)c1 | 35.5 µM [rising, single point] | 35.5 µM [rising, single point]
CCn1cc(C2=NOC(C(=O)Nc3ccccc3C(=O)OC)C2)c(C)n1 (stereo not drawn) | 11.2 µM [rising, partial curve] | 12.6 µM [rising, single point]
O=[N+]([O-])c1cc(Br)c(OCc2nnc(-c3ccccc3)o2)c(Br)c1 |  | 2 µM [falling, partial curve]
c1ccc(C2Nc3ccccc3Oc3ccccc32)cc1 (stereo not drawn) |  | 15.8 µM [rising, single point]

Part of the list above, reformatted:

| Structure (SMILES) | AC50 [1] | AC50 [2] |
| --- | --- | --- |
| CCn1c(=O)n(CC)c2cc(N3CCCCC3)c(NC(=O)Nc3ccccc3C(F)(F)F)cc21 |  | 0.112 µM [falling, full curve] |
| CCOC(=O)c1c(-c2ccc(OC)cc2)csc1NC(=O)CSc1ncnc2sccc12 |  | 25.1 µM [rising, partial curve] |
